PubChem BioAssay AID1159584, Peter MacCallum Cancer Centre | 2016
Shown is a random part of about 18,000 reagents. Not all columns of the deposit are shown. Not given: the amount of reagent, the time to read-out.

Screen: 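Genes that CDH1-null MCF10A cells selectively depend on to survive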 (primary screen)
System: human MCF10A breast epithelial cells, parental and CDH1-null
Reagents: siRNA against human genes
Measurement: 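ATP luminescence (CellTiter-Glo) viability per line relative to mean mock wells over all plates, and the ratio of CDH1-null to parental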
Direction: CDH1-null / parental viability ratio: higher = CDH1-null cells survive relatively better than parental; CDH1-null viability vs mock: higher = more viable CDH1-null cells
Units: CDH1-null viability vs mock in fraction of mock

{"gene":"TRIM11","CDH1-null / parental viability ratio":0.77,"CDH1-null viability vs mock":0.62}
{"gene":"TFDP1","CDH1-null / parental viability ratio":1.25,"CDH1-null viability vs mock":0.86}
{"gene":"NAALADL1","CDH1-null / parental viability ratio":0.97,"CDH1-null viability vs mock":0.7}
{"gene":"PRKCE","CDH1-null / parental viability ratio":1.02,"CDH1-null viability vs mock":0.84}
{"gene":"PSMD6","CDH1-null / parental viability ratio":1,"CDH1-null viability vs mock":0.26}
{"gene":"CYP2U1","CDH1-null / parental viability ratio":0.87,"CDH1-null viability vs mock":0.7}
{"gene":"CRAT","CDH1-null / parental viability ratio":0.96,"CDH1-null viability vs mock":1.04}
{"gene":"ZNF263","CDH1-null / parental viability ratio":1.29,"CDH1-null viability vs mock":1.34}
{"gene":"HOXB13","CDH1-null / parental viability ratio":1.07,"CDH1-null viability vs mock":0.73}
{"gene":"CHRNA10","CDH1-null / parental viability ratio":0.83,"CDH1-null viability vs mock":0.86}
{"gene":"RALYL","CDH1-null / parental viability ratio":0.91,"CDH1-null viability vs mock":1.02}
{"gene":"MRPS25","CDH1-null / parental viability ratio":0.74,"CDH1-null viability vs mock":0.81}
{"gene":"HPSE","CDH1-null / parental viability ratio":1.09,"CDH1-null viability vs mock":0.85}
{"gene":"C12orf43","CDH1-null / parental viability ratio":0.77,"CDH1-null viability vs mock":0.72}

A stretch from the list above, for reference:
{"gene":"NAALADL1","CDH1-null / parental viability ratio":0.97,"CDH1-null viability vs mock":0.7}
{"gene":"PRKCE","CDH1-null / parental viability ratio":1.02,"CDH1-null viability vs mock":0.84}
